In this test the target is TDP-43(256–264) peptide, ALR. The test can be described thus: native MS; ESI-MS (Q-ToF, soft ionisation settings); 10 µM peptide in 100 mM ammonium acetate, pH 7.5, without zinc or with 50 µM ZnCl2; both purified.

These are yes or no findings as the source states them, for the method shown.

B1: TDP-43(256–264) peptide, ALR (peptide)
peptide: HISNAEPKH
Turning to B1, the binding result is given as “no binding (tested: 10 µM)”.

Source of the values: article PMC7730363.
